Measurements reported in PubChem BioAssay AID1259254 (NCATS, 2017)
This is a random part of about 59,000 reagents. Over the whole deposit, about 1,550 (2.6%) are marked active. 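G2 share is only a proxy for re-replication; each gene was hit by three separate siRNAs, and active genes were retested.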 Reagents against one gene are numbered here. Further read-outs or replicates are left out here. The record does not give: the amount of reagent.

Purpose: 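Genome-wide screen for genes that prevent DNA re-replication in cancer cells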 (primary screen)
Cells: human HCT116 colorectal cancer cells
Knock-down reagent: single siRNA against human genes
Time to read-out: 3 days
Measured: 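Nuclei stained with Hoechst and imaged; cell-cycle phase assigned by DNA content; G2 share scaled per plate, non-targeting siRNA 0%, GMNN siRNA 100%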
Direction: G2 robust z-score: higher = more G2 cells, more excess DNA replication
Active means: 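An siRNA counts as active if its G2 robust z-score lies at least 5 MADs above the screen median; here such calls match roughly 38% of GMNN control or more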

With knock-down of LCN1 (GeneID 3933) #1, the screen gave G2 robust z-score -1.2; inactive. Depletion of LCN1 (GeneID 3933) #2 gave: G2 robust z-score -0.817; inactive. After knock-down of LCN1 (GeneID 3933) #3, the record shows G2 robust z-score -0.804; inactive. Depletion of PKDCC (GeneID 91461) #1 came out at: G2 robust z-score -0.62; inactive. After knock-down of PKDCC (GeneID 91461) #2 the results were G2 robust z-score 1.41; inactive. For PKDCC (GeneID 91461) #3 the deposit lists G2 robust z-score -0.718; inactive.

Against SIRT1 (GeneID 23411) #1 the deposit lists G2 robust z-score -1.39; inactive. Depletion of SIRT1 (GeneID 23411) #2 gave: G2 robust z-score 0.839; inactive. For SIRT1 (GeneID 23411) #3, the values are G2 robust z-score 2.63; inactive. Knock-down of ELMOD1 (GeneID 55531) #1 gave: G2 robust z-score -0.39; inactive. Silencing of ELMOD1 (GeneID 55531) #2 came out at: G2 robust z-score 2.32; inactive. Against ELMOD1 (GeneID 55531) #3, the entry reads G2 robust z-score 3.22; inactive.

For ELMOD1 (GeneID 55531) #4, the values are G2 robust z-score 0.685; inactive. Depletion of ELMOD1 (GeneID 55531) #5 came out at: G2 robust z-score -0.914; inactive. Depletion of ELMOD1 (GeneID 55531) #6 resulted in: G2 robust z-score -0.304; inactive.

Records listed so far whose gene name starts with E or e:
ELMOD1 (GeneID 55531) #1 → G2 robust z-score = -0.39; call = inactive
ELMOD1 (GeneID 55531) #2 → G2 robust z-score = 2.32; call = inactive
ELMOD1 (GeneID 55531) #3 → G2 robust z-score = 3.22; call = inactive
ELMOD1 (GeneID 55531) #4 → G2 robust z-score = 0.685; call = inactive
ELMOD1 (GeneID 55531) #5 → G2 robust z-score = -0.914; call = inactive
ELMOD1 (GeneID 55531) #6 → G2 robust z-score = -0.304; call = inactive
